Results are given in words; binding and its absence hold for the method and conditions named. Some entries that bind do so weakly or less than the wild type.
Legend:
[1] = target: AsLOV2 Jα helix deletion construct (residue 404-520) (Avena sativa) (UniProt O49003); experiment: SEC; dark state; monomer and dimer fractions by elution volume; conditions in Supplementary Note 3 and Supplementary Methods (not shown); both purified
[2] = target: AsLOV2 (residue 404-546) K413E mutant (Avena sativa) (UniProt O49003); experiment: SEC; light state; monomer and dimer fractions by elution volume; conditions in Supplementary Note 3 and Supplementary Methods (not shown); both purified
[3] = target: AsLOV2 A'α and Jα deletion construct (residue 413-520) (Avena sativa) (UniProt O49003); experiment: SEC; dark state; monomer and dimer fractions by elution volume; conditions in Supplementary Note 3 and Supplementary Methods (not shown); both purified
[4] = target: AsLOV2 A'α helix deletion construct (residue 413-546) (Avena sativa) (UniProt O49003); experiment: as above
[5] = target: AsLOV2 (residue 404-546) E475K mutant (Avena sativa) (UniProt O49003); experiment: SEC; light state; monomer and dimer fractions by elution volume; conditions in Supplementary Note 3 and Supplementary Methods (not shown); both purified
[6] = target: Avena sativa phototropin 1 LOV2 domain with A'α and Jα helices (residue 404-546), wild type (Avena sativa) (UniProt O49003); experiment: static SAXS; in solution; light state (LED light) compared with the ground state; ab initio shape reconstruction; both purified

With “AsLOV2 Jα helix deletion construct (residue 404-520) (from UniProt O49003 404-520) (domain or fragment)” as the molecule, how does the binding [1] read?
Its binding is “binds”.

For “AsLOV2 (residue 404-546) K413E mutant (from UniProt O49003 404-546) (domain or fragment)”, which binding [2] is on record?
The binding was “binds”.

With “AsLOV2 A'α and Jα deletion construct (residue 413-520) (from UniProt O49003 413-520) (domain or fragment)” as the molecule, how does the binding [3] read?
Its binding is “binds”.

Which binding [4] does the source give for “AsLOV2 A'α helix deletion construct (residue 413-546) (from UniProt O49003 413-546) (domain or fragment)” here?
Its binding is “binds”.

“AsLOV2 (residue 404-546) E475K mutant (from UniProt O49003 404-546) (domain or fragment)” was tested. Which binding [5] did it give?
The binding was “binds”.

B1: Avena sativa phototropin 1 LOV2 domain with A'α and Jα helices (residue 404-546), wild type (domain or fragment, UniProt O49003 404-546, looked up)
chain: LATTLERIEKNFVITDPRLPDNPIIFASDSFLQLTEYSREEILGRNCRFLQGPETDRATVRKIRDAIDNQTEVTVQLINYTKSGKKFWNLFHLQPMRDQKGDVQYFIGVQLDGTEHVRDAAEREGVMLIKKTAENIDEAAKEL
notes: Avena sativa phototropin 1 (AsPhot1), A'α helix (404-412) + LOV2 core (413-520) + Jα helix (521-546), residues 404-546; Carries FMN as chromophore; in the light state a Cys-FMN photoadduct is formed; also called AsLOV2; AsLOV2 WT
For B1, which binding [6] is on record?
Its binding is “binds”.
